Hit rate of the full screen: of about 5,600 compounds, about 3,100 (55%) were called active. So high a share suggests a set chosen from earlier hits. Inconclusive means that the source gave no clear call. Such entries were picked first, then a sample of the others.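 The calls were made as follows: active = mean loss of cell viability signal at or above a set limit, and enough replicates individually reaching it; inconclusive = meets only the mean limit or only the replicate share; inactive = meets neither condition.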
assay: NIH/3T3 fibroblast cytotoxicity, confirmation, cytotoxicity control, cell-based, cherry-pick, single point, set 2 (AID 651744); settings: NIH/3T3 viability, CellTiter-Glo ATP luminescence, 90 h; at 24.9 µM; hits give high values;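 also: 0% = median of neutral control wells and 100% = median of positive control wells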

Compound | inhibition
COc1ccc(S(=O)(=O)Nc2ccc3c(c2)C(=O)N([C@@H](C)CO)C[C@H](C)[C@@H](CN(C)S(=O)(=O)c2cccs2)OCCCC[C@@H](C)O3)cc1 | inactive: 5.58%
O=C(C[C@@H]1CC[C@H]2[C@@H](COC[C@H](O)CN2Cc2ccc(Oc3ccccc3)cc2)O1)Nc1nccs1 | inconclusive: 36.1%
C[C@@H]1CCCCO[C@H](CN(C)Cc2ccc3c(c2)OCO3)[C@H](C)CN([C@H](C)CO)C(=O)c2cc(NC(=O)Nc3ccc(F)cc3)ccc2O1 | active: 104%
C[C@@H]1CN([C@@H](C)CO)C(=O)Cc2cc(NS(=O)(=O)c3ccc(F)cc3)ccc2O[C@H]1CN(C)Cc1ccccc1 | inconclusive: 19.3%
COc1ccc(NC(=O)N2CCCCN3[C@H](C2)[C@@H](c2ccc(C#Cc4ccccc4)cc2)[C@@H]3CO)cc1 | active: 104%
CCCNC(=O)N(C)C[C@H]1Oc2cc(-c3ccncc3)ccc2S(=O)(=O)N([C@@H](C)CO)C[C@@H]1C | inconclusive: 21.6%
CCCNC(=O)N1[C@@H](C#N)[C@H](c2ccc(C#Cc3cccc(F)c3)cc2)[C@@H]1CO | inconclusive: 37.6%
Cc1ccc(-c2ccc3c(c2)O[C@H](CN(C)Cc2ccc(F)cc2)[C@H](C)CN([C@@H](C)CO)S3(=O)=O)cc1 | active: 68.7%
O=C(Nc1ccc(Cl)cc1)N[C@@H]1CC[C@H](CCn2cc(-c3ccccc3F)nn2)O[C@@H]1CO | inconclusive: 27.3%
Cc1cccc(S(=O)(=O)N2C[C@H]3[C@@H](c4ccccc42)[C@H](CO)N3CC2CCCC2)c1 | inconclusive: 14.5%
C[C@@H]1CN([C@@H](C)CO)C(=O)Cc2cc(N(C)C)ccc2O[C@H]1CN(C)Cc1ccc(Oc2ccccc2)cc1 | active: 106%
CC(C)NC(=O)N(C)C[C@@H]1Oc2cc(C#Cc3ccc(F)cc3)ccc2S(=O)(=O)N([C@@H](C)CO)C[C@@H]1C | inconclusive: 22.7%
CN(C)C(=O)c1cccc(-c2ccc3c(c2)[C@@H]2[C@@H](CCN2C(=O)C2CC2)[C@@H](CO)N3)c1 | inactive: -1.44%
CN(C)C(=O)[C@H]1[C@H](CO)[C@H]2Cn3c(ccc(-c4ccccc4)c3=O)[C@@H]1N2CC1CCCC1 | inconclusive: 29.1%
C[C@H]1CN([C@@H](C)CO)C(=O)c2cc(NS(=O)(=O)c3cccs3)ccc2O[C@H]1CN(C)Cc1ccc(-c2ccccc2)cc1 | active: 54.7%
C[C@@H]1CN([C@@H](C)CO)C(=O)c2cc(NC(=O)Nc3cccc4ccccc34)ccc2O[C@@H]1CN(C)Cc1ccc(Oc2ccccc2)cc1 | active: 27.3%
COCC#Cc1ccc([C@H]2[C@H](CO)N3CCCCN(S(=O)(=O)c4cccc(OC)c4)C[C@@H]23)cc1 | inconclusive: 27.4%
CN(C)CC(=O)N1[C@H](C(=O)NC2CCCC2)[C@@H](CO)[C@@H]2Cn3c(ccc(-c4ccc(F)cc4)c3=O)[C@@H]21 | inactive: 13.6%

Not a retest: an excerpt of the list.
Compound | inhibition
C[C@@H]1CN([C@@H](C)CO)C(=O)Cc2cc(NS(=O)(=O)c3ccc(F)cc3)ccc2O[C@H]1CN(C)Cc1ccccc1 | inconclusive: 19.3%
COc1ccc(NC(=O)N2CCCCN3[C@H](C2)[C@@H](c2ccc(C#Cc4ccccc4)cc2)[C@@H]3CO)cc1 | active: 104%
CCCNC(=O)N(C)C[C@H]1Oc2cc(-c3ccncc3)ccc2S(=O)(=O)N([C@@H](C)CO)C[C@@H]1C | inconclusive: 21.6%

Remaining list, next part:

Compound | inhibition
COc1cccc(NC(=O)N(C)C[C@H]2Oc3cc(C#Cc4ccc(F)cc4)ccc3S(=O)(=O)N([C@H](C)CO)C[C@@H]2C)c1 | inactive: 5.12%
C[C@H](CO)N1C[C@H](C)[C@@H](CN(C)C)Oc2cc(-c3ccncc3)ccc2S1(=O)=O | inconclusive: 18.1%
CN(C)C(=O)c1cccc(-c2ccc3c(c2)[C@@H]2[C@@H](CCN2S(=O)(=O)c2ccccc2)[C@H](CO)N3)c1 | inactive: 23.2%
C[C@H]1CN([C@@H](C)CO)C(=O)c2cc(NC(=O)Cc3ccccc3)ccc2O[C@H]1CN(C)Cc1ccc(C(=O)Nc2ccccc2N)cc1 | inconclusive: 42.1%
C[C@@H]1CN([C@@H](C)CO)C(=O)c2cc(NC(=O)Cc3cn(C)c4ccccc34)ccc2O[C@H]1CN(C)Cc1ccc(C(F)(F)F)cc1 | inconclusive: 23.4%
C[C@H](CO)N1C[C@H](C)[C@H](CN(C)C(=O)Nc2ccc(C(F)(F)F)cc2)Oc2c(cccc2N(C)C)C1=O | inactive: 11%
C[C@@H]1CN([C@@H](C)CO)C(=O)c2cc(NC(=O)Nc3cccc4ccccc34)ccc2O[C@@H](C)CCCCO[C@@H]1CN(C)Cc1ccccc1 | inconclusive: 27%
O=S(=O)(c1cccs1)N1CCCCN2[C@H](C1)[C@H](c1ccc(-c3ccccc3)cc1)[C@@H]2CO | inconclusive: 28.4%
C[C@H](CO)N1C[C@H](C)[C@H](CN(C)C(=O)[C@H](Cc2ccccc2)N(C)C)OCc2ccccc2-c2c(n(C)c3ccccc23)C1=O | inconclusive: 33.4%
O=C(Nc1cc(F)ccc1F)N1CCCCN2[C@H](CO)[C@H](c3ccc(-c4ccncc4)cc3)[C@H]2C1 | inactive: 18.7%
C[C@@H]1CN([C@@H](C)CO)S(=O)(=O)c2ccc(-c3ccncc3)cc2O[C@H]1CN(C)C(=O)CC1CC1 | inconclusive: 32.2%
C[C@H](CO)N1C[C@H](C)[C@@H](CN(C)C(=O)Nc2ccc(C(F)(F)F)cc2)OCCCC[C@H](C)Oc2ccc(NC(=O)Cc3ccccc3)cc2C1=O | inconclusive: 22.5%
COc1ccc(CN(C)C[C@H]2OCCCC[C@H](C)Oc3ccc(NS(=O)(=O)c4ccccc4)cc3C(=O)N([C@@H](C)CO)C[C@H]2C)cc1 | active: 89.5%
COc1ccc(NC(=O)N(C)C[C@@H]2OCCCC[C@@H](C)Oc3ccc(NS(=O)(=O)c4ccc(Cl)cc4)cc3C(=O)N([C@H](C)CO)C[C@H]2C)cc1 | inactive: -14.7%
COc1ccccc1NC(=O)Nc1ccc2c(c1)C(=O)N(C)C[C@@H](OC)[C@H](C)CN(Cc1ccccc1Cl)[C@H](C)CO2 | inactive: 7.88%
C[C@H](CO)N1C[C@H](C)[C@H](CN(C)Cc2ccccc2)Oc2c(NC(=O)c3nc4ccccc4s3)cccc2C1=O | inconclusive: 45.1%
COCC(=O)N1[C@H](C#N)[C@H](c2ccc(C#Cc3ccccc3F)cc2)[C@H]1CO | inconclusive: 26.1%

— PubChem BioAssay AID651744 (Broad Institute, 2012)
